Assay results taken from article PMC7819943, “Rice protein-binding microarrays: a tool to detect cis-acting elements near promoter regions in rice”.
Some of the results follow.

Protein sequences, listed by entry. Tags and fused reporters are not part of them.
UniProt Q0JBA9, entry or part of it: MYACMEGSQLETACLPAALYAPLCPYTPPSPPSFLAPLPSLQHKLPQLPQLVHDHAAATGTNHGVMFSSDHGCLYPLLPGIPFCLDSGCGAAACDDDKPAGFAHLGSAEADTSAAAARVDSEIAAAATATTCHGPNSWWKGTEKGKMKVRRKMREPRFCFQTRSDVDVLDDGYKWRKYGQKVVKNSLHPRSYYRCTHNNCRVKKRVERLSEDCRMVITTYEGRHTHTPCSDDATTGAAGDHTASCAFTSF

These sequences were tested against OsWRKY34 (Oryza sativa, UniProt Q0JBA9 1-250) (assay: protein-binding microarray (RPBM); PBS, 2% BSA, 51.3 ng/ul salmon testes DNA, 50 uM zinc acetate, 200 nM TF, 25 C, 1 h; high values mean tight binding). Settings: protein: recombinant; tags: N-terminal polyhistidine and DsRed monomer fusion (pET32a); label: CyDye5-dUTP incorporated in the synthesized complementary strand; 3' TTTTT single-stranded linker to array surface; dsDNA, one strand shown.
How it was run: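 Binding signal is reported as fluorescence intensity per feature (arbitrary units) from an Axon 4000B scanner. Incubation used 200 nM of each Ni–NTA-purified, N-terminally polyhistidine- and DsRed-fused transcription factor from E. coli BL21-CodonPlus on a double-stranded custom Agilent array for 1 h at 25 °C, with 50 µM zinc acetate in the buffer, followed by washing.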

Sequence | binding signal
GTGCCGGGCGGCCCACATGGTCTATAGCTGTTCCTGGATTCGGAGTCACCTAGTGCAG | 10600 fluorescence intensity (a.u.)
TCTCGATCCTTCCGCCCGCCCTTATCTCTTCTTTTTTCCACGGAGTCACCTAGTGCAG | 8980 fluorescence intensity (a.u.)
TCTATTTGTTGTAATAGATACTCTCTATTTCGTGTTATAACGGAGTCACCTAGTGCAG | 9500 fluorescence intensity (a.u.)
TCCCTCCGCTGCCGCCGCCATCTACGCTCGCTTCCTCACGCGGAGTCACCTAGTGCAG | 9140 fluorescence intensity (a.u.)
CACCACACGTCACGCTTCCACCTCCACCTCCACCTCACTGCGGAGTCACCTAGTGCAG | 11900 fluorescence intensity (a.u.)
AGAGCAGTTTTTCTTTTCATTTCGTAAATTTCAGTCACTTCGGAGTCACCTAGTGCAG | 9400 fluorescence intensity (a.u.)
TCCCGTTTTCCGTACCATTACTTAATCTTCATCTTATTAGCGGAGTCACCTAGTGCAG | 12200 fluorescence intensity (a.u.)
ACATAGCTTCATCTTTTGGTGGTTTAATAACTTTCTCTTCCGGAGTCACCTAGTGCAG | 9870 fluorescence intensity (a.u.)
CCTGCATGGCCTCTGCGCCACCTTGCTGCTGCCCCGCCGACGGAGTCACCTAGTGCAG | 8210 fluorescence intensity (a.u.)
ATTGATATCAAACCGTTTCTTTTGTCATATTCGTCATTTCCGGAGTCACCTAGTGCAG | 17700 fluorescence intensity (a.u.)
TAACTTTTTCTTCAAACTTCCAATTTTTCCATCACATCAACGGAGTCACCTAGTGCAG | 8400 fluorescence intensity (a.u.)
ATTCAGATTGGCTGGTATTTGCGCGTACAATATATTATAACGGAGTCACCTAGTGCAG | 8450 fluorescence intensity (a.u.)
TACCTACACAGCATTATAGTGATATTGATTTTTCTTACCTCGGAGTCACCTAGTGCAG | 8850 fluorescence intensity (a.u.)
CGGTCAAACGTTTGATGTTACACCCAAAATTTTTCTTTTCCGGAGTCACCTAGTGCAG | 8330 fluorescence intensity (a.u.)
CAAAGGTTACCACCATTATTCTCTTCTCTCCTCCTAGTTTCGGAGTCACCTAGTGCAG | 8860 fluorescence intensity (a.u.)
TTATCTCTGTTGTTTAACGAAAACACTCGTATATATAGTCCGGAGTCACCTAGTGCAG | 8400 fluorescence intensity (a.u.)
AGGACGGGGAAGATTCGTGCCCCGATTTTTTCGTGTTCGACGGAGTCACCTAGTGCAG | 8430 fluorescence intensity (a.u.)
ACTTCAGCTATTGCCCGGTCACTCCCGATCAATTCCTGCCCGGAGTCACCTAGTGCAG | 10300 fluorescence intensity (a.u.)
GCTCCCGCCCAAGACGAAGCTGACCACCATCACCTTCAGCCGGAGTCACCTAGTGCAG | 9980 fluorescence intensity (a.u.)
GGATTGGATTTTTTTTGCCGCGCGGAACCAGCGCCGTACGCGGAGTCACCTAGTGCAG | 8110 fluorescence intensity (a.u.)
CCAACCTCCGCCACCGCGGCCTCGAGCTGGTATAGAGCTCCGGAGTCACCTAGTGCAG | 8710 fluorescence intensity (a.u.)

A second format for some results above.
Sequence,binding signal
TCTATTTGTTGTAATAGATACTCTCTATTTCGTGTTATAACGGAGTCACCTAGTGCAG,9500 fluorescence intensity (a.u.)
TCCCTCCGCTGCCGCCGCCATCTACGCTCGCTTCCTCACGCGGAGTCACCTAGTGCAG,9140 fluorescence intensity (a.u.)
CACCACACGTCACGCTTCCACCTCCACCTCCACCTCACTGCGGAGTCACCTAGTGCAG,11900 fluorescence intensity (a.u.)

(cont.)

Sequence | binding signal
AAGTAGATTCTCTCATTTATTTATACATTTACACTGTTCACGGAGTCACCTAGTGCAG | 8770 fluorescence intensity (a.u.)
GTATTGTGGGTTAGGGATGTCGATTATACTCGACGTAAAGCGGAGTCACCTAGTGCAG | 9160 fluorescence intensity (a.u.)
CACATGGGCCACTCAGCTGGTCACTTCCTTCTCTCCCACTCGGAGTCACCTAGTGCAG | 9720 fluorescence intensity (a.u.)
AATTCCATACGCCTCAATCCATAATTTATATAGTATTTTTCGGAGTCACCTAGTGCAG | 8530 fluorescence intensity (a.u.)
GGTCTACTCCGGTTTTTATATTTTTAATTAAATTTTTATACGGAGTCACCTAGTGCAG | 8120 fluorescence intensity (a.u.)
GTCCAGATACTAAGGTGTATGGTATTATCGGAAAACCTGTCGGAGTCACCTAGTGCAG | 24300 fluorescence intensity (a.u.)
ATACGCTACATTCACATTCATACTCAGAAATGAGATTTTCCGGAGTCACCTAGTGCAG | 9000 fluorescence intensity (a.u.)
CCCATACCAATTTTATTTTTTCAGCGTACATACAATTAAACGGAGTCACCTAGTGCAG | 9140 fluorescence intensity (a.u.)
CAGTTTTTTTACAAAATTTTGACAATATATTATCCTATTTCGGAGTCACCTAGTGCAG | 8550 fluorescence intensity (a.u.)
GAAATGATGGCTTTCTTTGATTTCCTTTGCTAGCTTACTTCGGAGTCACCTAGTGCAG | 9010 fluorescence intensity (a.u.)
CCAGAGAGCTCTCGTCGCGCGCGCGCACTTTTCTCCTCTCCGGAGTCACCTAGTGCAG | 9260 fluorescence intensity (a.u.)
TAACCCACAACCTACACTGCTAACTGTATCTGTGTTATGACGGAGTCACCTAGTGCAG | 8230 fluorescence intensity (a.u.)
AGGATGGATGGGTGTGCTGTATATACTTGTTGTAATTAAGCGGAGTCACCTAGTGCAG | 9800 fluorescence intensity (a.u.)
CCTGCATCCGTTAACAACACTTACCAAAATTTAGTCGCACCGGAGTCACCTAGTGCAG | 8780 fluorescence intensity (a.u.)
AAAGCCTGTCCTTTTCCAAGATTTTCATGCCCAAACTCAACGGAGTCACCTAGTGCAG | 8540 fluorescence intensity (a.u.)
TGCTCGAAATTGAGTGTGTTCTATCTACTGTAGGGTTGTGCGGAGTCACCTAGTGCAG | 8220 fluorescence intensity (a.u.)
TTACAATTGTATTCCTGTCAGAATCCTGTGTTTTTCCTATCGGAGTCACCTAGTGCAG | 9430 fluorescence intensity (a.u.)
AGATATACCGTTGTTGCATTTCACCTTAAAATATTTCCAACGGAGTCACCTAGTGCAG | 8550 fluorescence intensity (a.u.)
CCAGAAATTCTCTTATCCTTCTTTTCTTTCTCTTTTTCTTCGGAGTCACCTAGTGCAG | 10600 fluorescence intensity (a.u.)
CTTCCGGGAGCGCTTCCTGTTGTGTACTTGTGTGATCACACGGAGTCACCTAGTGCAG | 8880 fluorescence intensity (a.u.)
AACCTTGTCCCTTTTCCCCGCAAATCCTTGCCGCCTTTTGCGGAGTCACCTAGTGCAG | 9010 fluorescence intensity (a.u.)

Sequence | binding signal
GTTTTTTTCGGTCCACATTTGATGCTCCATACATGTGTCTCGGAGTCACCTAGTGCAG | 8730 fluorescence intensity (a.u.)
TTCGATCATTTTGCTATATAACTTTGTTTCTATAATTTGACGGAGTCACCTAGTGCAG | 8030 fluorescence intensity (a.u.)
GTCCATCTGCGTCTCTCCTAATCTCATCCGTCCGCTGTACCGGAGTCACCTAGTGCAG | 12200 fluorescence intensity (a.u.)
CTCTCTATCATTCTCCGTTGCCACGCTAATCGCTCAGCGCCGGAGTCACCTAGTGCAG | 9330 fluorescence intensity (a.u.)
CACGCTGCACTGCACCGCTTTACGCCATCTCGCCAATTTTCGGAGTCACCTAGTGCAG | 10300 fluorescence intensity (a.u.)
CCACTGCTTCGTCATCGTCTACGCCCTCCTCATCGTCCACCGGAGTCACCTAGTGCAG | 9440 fluorescence intensity (a.u.)
CCACCCATGCATGCAATGCAGCCTCATCGCTTACGTCACCCGGAGTCACCTAGTGCAG | 11700 fluorescence intensity (a.u.)
GCTCCGGCTCTTTCTCTCTTTCTCTCTCTCCACCGCAAGCCGGAGTCACCTAGTGCAG | 8260 fluorescence intensity (a.u.)
CACTCGATCCTCGCCATTACCATCAGGCCCACACACATAACGGAGTCACCTAGTGCAG | 13600 fluorescence intensity (a.u.)
ACCCTCCACCCGCCACCGCCACCGCCGCCTTCGCCGCCGCCGGAGTCACCTAGTGCAG | 9250 fluorescence intensity (a.u.)
CCGCTCTCTGCTAGCTTCCACACACCAAGTTCATCAGCCACGGAGTCACCTAGTGCAG | 10200 fluorescence intensity (a.u.)
ATTTCCTTTTCTTTGCGTGAGCTCATTGCTCTTTATTTGGCGGAGTCACCTAGTGCAG | 8670 fluorescence intensity (a.u.)
TCGGGTTTTAGGGTTTTCTTCCTCTTCTCTTGCATCCTCCCGGAGTCACCTAGTGCAG | 8630 fluorescence intensity (a.u.)
GATAATGAATCATTGTTGTGTCCATGTATATTACATCATGCGGAGTCACCTAGTGCAG | 9670 fluorescence intensity (a.u.)
GCTTATACTTATCAGTCAAAATTTAAATTTCCATCCTTAACGGAGTCACCTAGTGCAG | 9130 fluorescence intensity (a.u.)
TCCGCCTTCTGAGTCGCCTCAGTACTCCCATCCGATACGACGGAGTCACCTAGTGCAG | 8330 fluorescence intensity (a.u.)
ACGCGCACCACTTCGGTCGCCCCGCCCGGCTGCACTGCATCGGAGTCACCTAGTGCAG | 10200 fluorescence intensity (a.u.)
TTTTTGTGGCTCTTATATTTCACTTTTTCATTCATAGGATCGGAGTCACCTAGTGCAG | 11800 fluorescence intensity (a.u.)
ATCTTCAAAACAACAGTCCCTTTTCTTATATCGTAATTTCCGGAGTCACCTAGTGCAG | 8370 fluorescence intensity (a.u.)
CTCAGTCTTCTTTTTTCTTCTTCTTTGTTTGACGGAACAACGGAGTCACCTAGTGCAG | 9260 fluorescence intensity (a.u.)
GGAAGTCAACTCTTTGCACCGTGATACGAATTATGCTACCCGGAGTCACCTAGTGCAG | 8240 fluorescence intensity (a.u.)

Sequence | binding signal
TCCATCACCAAGATGCTAAACTTTTCCCGTCGCCGTTACCCGGAGTCACCTAGTGCAG | 8930 fluorescence intensity (a.u.)
GATATGACACTTTAATCCTGTACCTTTTCAGAAATCAGAACGGAGTCACCTAGTGCAG | 8030 fluorescence intensity (a.u.)
AAACTTATGGGTATGTGAGGAATTTTCTTGTCCTTGTACTCGGAGTCACCTAGTGCAG | 9210 fluorescence intensity (a.u.)
TGTTCTGCCAGCCAATCCAGATCGCCCTCGTATGCACGCTCGGAGTCACCTAGTGCAG | 8890 fluorescence intensity (a.u.)
CCTATAGCGTCTCTCCCGAAGGCTCGAGACACCACACCTCCGGAGTCACCTAGTGCAG | 8320 fluorescence intensity (a.u.)
TATCCTCCACCGGTCTAGGCACTTTCTGTATCTATATATACGGAGTCACCTAGTGCAG | 8840 fluorescence intensity (a.u.)
TATCCCGTATATAGCGCCCCTACGTCGGCCGGCCCGACGACGGAGTCACCTAGTGCAG | 8680 fluorescence intensity (a.u.)
AACCAGGCTCATCTCCATCTCCTTCCCCGCGCGAGAGAGACGGAGTCACCTAGTGCAG | 8380 fluorescence intensity (a.u.)
TCTCTGAAGCAACACCATATAAAACCTTGCCACACTTTTACGGAGTCACCTAGTGCAG | 9300 fluorescence intensity (a.u.)
AGTTATGTTTTGATCCTGCCACATAGTTTGAGTTTTGTGACGGAGTCACCTAGTGCAG | 9470 fluorescence intensity (a.u.)
CCTTGTTTTTTTGTGGATGGCTACTTGCAATGCTATACTTCGGAGTCACCTAGTGCAG | 10200 fluorescence intensity (a.u.)
TCATTTCTTATTTTGTAGGTCAAAATGGTTTCCCAAGTTCCGGAGTCACCTAGTGCAG | 8440 fluorescence intensity (a.u.)
ACTTTTCTTAGTTTCCACGTCGCAGTTTCTCTTCTCTCCTCGGAGTCACCTAGTGCAG | 9870 fluorescence intensity (a.u.)
AGATGGTTTCTCCACCAGTGTGTGCTTTTGACACATGTATCGGAGTCACCTAGTGCAG | 8600 fluorescence intensity (a.u.)
GAGAGGAGGTGGTGGGAAGTGGCGGCTAGGGTTTGGGTGGCGGAGTCACCTAGTGCAG | 11300 fluorescence intensity (a.u.)
GACTCCTCCGTCGCGATCTCCGCCGCGACCTCGTCCACGGCGGAGTCACCTAGTGCAG | 8550 fluorescence intensity (a.u.)
TTCCCACCGCTGCCGCTCGTCCCGTCTCACCGATCCCTCCCGGAGTCACCTAGTGCAG | 10300 fluorescence intensity (a.u.)
TCTCTCTTCTTCAACCTCTGTACCTCTCTTCTCTTCTCCACGGAGTCACCTAGTGCAG | 8850 fluorescence intensity (a.u.)
CTTATTCTCGTTCTCCTCTTCATCTCGTTTTTCCCTTTCTCGGAGTCACCTAGTGCAG | 11200 fluorescence intensity (a.u.)
CAACCACAACACCGTCTTCTTCGACGTCAACATGCGCGCCCGGAGTCACCTAGTGCAG | 8540 fluorescence intensity (a.u.)
GCATACATCTCTACTACCTGCATCTCCATCTCAAATCAAACGGAGTCACCTAGTGCAG | 10400 fluorescence intensity (a.u.)
